Measurements as given in the supplement of paper PMC10849652.
The list shows a part of the results.

Chains of the proteins cited; added tags and fusions are not shown. Lines headed by an entry give the natural chain unless they say otherwise; changes in a name come on top.
UniProt O43312: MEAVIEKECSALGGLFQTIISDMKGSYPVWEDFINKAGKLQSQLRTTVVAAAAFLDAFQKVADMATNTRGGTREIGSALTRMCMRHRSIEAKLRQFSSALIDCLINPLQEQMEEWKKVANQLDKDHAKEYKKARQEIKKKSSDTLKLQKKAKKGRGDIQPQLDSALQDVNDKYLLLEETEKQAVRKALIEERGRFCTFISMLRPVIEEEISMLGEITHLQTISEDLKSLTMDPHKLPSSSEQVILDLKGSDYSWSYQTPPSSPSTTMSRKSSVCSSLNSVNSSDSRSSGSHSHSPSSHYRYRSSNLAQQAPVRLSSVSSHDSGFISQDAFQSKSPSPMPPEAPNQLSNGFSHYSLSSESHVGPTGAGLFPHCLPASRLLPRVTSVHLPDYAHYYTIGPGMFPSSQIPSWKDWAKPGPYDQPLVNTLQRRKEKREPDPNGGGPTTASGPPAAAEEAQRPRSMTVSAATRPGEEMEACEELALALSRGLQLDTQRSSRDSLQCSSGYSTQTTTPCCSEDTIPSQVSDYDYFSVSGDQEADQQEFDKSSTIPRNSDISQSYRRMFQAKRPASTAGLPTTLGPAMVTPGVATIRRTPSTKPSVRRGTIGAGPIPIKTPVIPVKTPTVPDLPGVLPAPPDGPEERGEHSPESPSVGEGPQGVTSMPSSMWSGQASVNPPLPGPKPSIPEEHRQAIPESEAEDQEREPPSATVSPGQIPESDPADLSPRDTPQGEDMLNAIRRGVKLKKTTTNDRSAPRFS
UniProt P03928: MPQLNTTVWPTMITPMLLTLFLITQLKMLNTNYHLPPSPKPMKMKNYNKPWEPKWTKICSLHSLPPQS
UniProt O15457: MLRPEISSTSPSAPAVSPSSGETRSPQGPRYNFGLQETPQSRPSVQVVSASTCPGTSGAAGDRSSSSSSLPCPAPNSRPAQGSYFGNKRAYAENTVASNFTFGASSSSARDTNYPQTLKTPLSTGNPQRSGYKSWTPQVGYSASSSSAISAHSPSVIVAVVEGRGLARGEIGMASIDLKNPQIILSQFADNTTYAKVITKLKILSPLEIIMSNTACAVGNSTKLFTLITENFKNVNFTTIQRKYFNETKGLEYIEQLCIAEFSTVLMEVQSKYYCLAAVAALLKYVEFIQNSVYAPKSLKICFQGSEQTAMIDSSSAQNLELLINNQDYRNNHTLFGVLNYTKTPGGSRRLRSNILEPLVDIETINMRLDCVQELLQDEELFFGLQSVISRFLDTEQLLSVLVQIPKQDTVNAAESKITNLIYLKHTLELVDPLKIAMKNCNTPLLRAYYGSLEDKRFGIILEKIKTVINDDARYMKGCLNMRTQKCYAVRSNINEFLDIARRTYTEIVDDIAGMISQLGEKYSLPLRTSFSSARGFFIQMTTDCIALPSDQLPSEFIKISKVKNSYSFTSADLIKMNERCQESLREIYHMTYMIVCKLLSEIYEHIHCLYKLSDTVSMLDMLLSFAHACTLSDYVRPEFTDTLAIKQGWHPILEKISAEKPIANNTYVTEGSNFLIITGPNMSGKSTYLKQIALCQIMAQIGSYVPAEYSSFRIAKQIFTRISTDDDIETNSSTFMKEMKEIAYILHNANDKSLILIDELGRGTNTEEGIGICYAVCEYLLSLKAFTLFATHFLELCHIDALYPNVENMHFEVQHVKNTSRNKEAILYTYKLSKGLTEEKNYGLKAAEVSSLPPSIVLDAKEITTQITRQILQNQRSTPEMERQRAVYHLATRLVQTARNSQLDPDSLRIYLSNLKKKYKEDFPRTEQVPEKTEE
UniProt P03886, whole entry, looked up: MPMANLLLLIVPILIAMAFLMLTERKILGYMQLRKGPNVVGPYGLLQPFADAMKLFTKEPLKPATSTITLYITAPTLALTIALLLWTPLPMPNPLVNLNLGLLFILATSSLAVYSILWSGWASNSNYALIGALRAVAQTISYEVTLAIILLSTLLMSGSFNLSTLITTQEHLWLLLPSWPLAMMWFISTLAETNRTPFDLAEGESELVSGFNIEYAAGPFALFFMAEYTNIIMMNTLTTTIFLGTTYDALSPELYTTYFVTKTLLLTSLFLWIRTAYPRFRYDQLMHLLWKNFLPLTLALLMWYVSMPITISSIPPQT
UniProt Q6P444: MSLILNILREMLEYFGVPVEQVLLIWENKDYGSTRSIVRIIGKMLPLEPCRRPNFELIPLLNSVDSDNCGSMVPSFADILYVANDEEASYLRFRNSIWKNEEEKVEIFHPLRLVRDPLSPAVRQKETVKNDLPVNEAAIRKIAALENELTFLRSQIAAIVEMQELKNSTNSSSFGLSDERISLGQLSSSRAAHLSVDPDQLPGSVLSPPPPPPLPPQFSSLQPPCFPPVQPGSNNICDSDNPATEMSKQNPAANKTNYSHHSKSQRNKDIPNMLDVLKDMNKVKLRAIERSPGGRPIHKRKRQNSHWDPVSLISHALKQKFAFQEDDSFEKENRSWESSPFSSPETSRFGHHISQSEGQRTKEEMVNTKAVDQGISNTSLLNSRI
UniProt Q9NYA4: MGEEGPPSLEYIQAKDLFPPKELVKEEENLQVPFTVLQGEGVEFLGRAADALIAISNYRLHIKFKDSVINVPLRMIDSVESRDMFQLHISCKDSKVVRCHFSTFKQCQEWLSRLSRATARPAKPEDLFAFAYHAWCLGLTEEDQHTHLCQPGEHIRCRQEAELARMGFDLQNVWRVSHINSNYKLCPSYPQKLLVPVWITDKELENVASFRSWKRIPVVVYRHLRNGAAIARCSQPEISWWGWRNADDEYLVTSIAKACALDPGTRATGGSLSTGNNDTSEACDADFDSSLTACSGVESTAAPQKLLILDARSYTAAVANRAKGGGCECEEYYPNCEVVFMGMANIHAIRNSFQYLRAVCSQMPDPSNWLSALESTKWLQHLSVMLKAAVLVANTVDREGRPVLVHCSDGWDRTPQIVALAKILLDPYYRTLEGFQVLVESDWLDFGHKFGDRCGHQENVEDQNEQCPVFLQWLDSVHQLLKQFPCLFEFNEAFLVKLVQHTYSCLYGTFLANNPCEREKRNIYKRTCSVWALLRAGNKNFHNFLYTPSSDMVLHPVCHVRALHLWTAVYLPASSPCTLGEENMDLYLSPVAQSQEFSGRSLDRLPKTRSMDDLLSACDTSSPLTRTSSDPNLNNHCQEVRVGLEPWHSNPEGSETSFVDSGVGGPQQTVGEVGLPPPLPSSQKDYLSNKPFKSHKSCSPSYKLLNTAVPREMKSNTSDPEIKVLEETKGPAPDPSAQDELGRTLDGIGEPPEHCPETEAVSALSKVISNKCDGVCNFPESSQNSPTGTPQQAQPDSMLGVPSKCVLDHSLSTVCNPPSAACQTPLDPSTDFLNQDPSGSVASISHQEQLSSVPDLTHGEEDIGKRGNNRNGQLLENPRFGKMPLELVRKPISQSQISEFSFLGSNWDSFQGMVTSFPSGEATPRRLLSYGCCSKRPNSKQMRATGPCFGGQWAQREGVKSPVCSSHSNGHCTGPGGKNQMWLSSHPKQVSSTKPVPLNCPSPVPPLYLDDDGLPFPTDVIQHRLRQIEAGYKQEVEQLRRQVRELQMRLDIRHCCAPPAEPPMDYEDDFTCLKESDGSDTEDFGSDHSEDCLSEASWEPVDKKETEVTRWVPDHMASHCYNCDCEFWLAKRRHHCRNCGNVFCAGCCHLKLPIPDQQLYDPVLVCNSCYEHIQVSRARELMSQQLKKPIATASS
UniProt O43196: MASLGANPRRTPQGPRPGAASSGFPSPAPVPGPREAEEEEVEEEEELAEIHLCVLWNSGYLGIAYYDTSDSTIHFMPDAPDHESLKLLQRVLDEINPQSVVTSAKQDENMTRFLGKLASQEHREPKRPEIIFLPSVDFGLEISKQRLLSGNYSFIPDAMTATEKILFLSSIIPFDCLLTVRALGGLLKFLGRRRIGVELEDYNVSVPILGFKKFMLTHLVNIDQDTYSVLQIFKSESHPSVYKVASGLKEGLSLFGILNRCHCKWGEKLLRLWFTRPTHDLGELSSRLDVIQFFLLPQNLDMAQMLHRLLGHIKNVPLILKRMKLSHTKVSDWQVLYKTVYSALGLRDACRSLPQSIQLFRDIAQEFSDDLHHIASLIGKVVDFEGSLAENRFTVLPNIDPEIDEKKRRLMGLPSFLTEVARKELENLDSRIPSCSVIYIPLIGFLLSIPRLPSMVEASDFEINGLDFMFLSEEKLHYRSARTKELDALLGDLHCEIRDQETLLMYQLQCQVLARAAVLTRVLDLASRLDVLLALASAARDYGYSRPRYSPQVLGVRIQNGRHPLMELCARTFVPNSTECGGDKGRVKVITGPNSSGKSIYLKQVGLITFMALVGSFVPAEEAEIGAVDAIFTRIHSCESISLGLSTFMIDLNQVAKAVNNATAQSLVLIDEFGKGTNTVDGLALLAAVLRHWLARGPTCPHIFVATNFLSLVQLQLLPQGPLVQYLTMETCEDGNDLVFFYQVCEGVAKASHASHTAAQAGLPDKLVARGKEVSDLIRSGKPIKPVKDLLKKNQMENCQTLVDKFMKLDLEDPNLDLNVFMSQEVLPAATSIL
UniProt Q9HCI7: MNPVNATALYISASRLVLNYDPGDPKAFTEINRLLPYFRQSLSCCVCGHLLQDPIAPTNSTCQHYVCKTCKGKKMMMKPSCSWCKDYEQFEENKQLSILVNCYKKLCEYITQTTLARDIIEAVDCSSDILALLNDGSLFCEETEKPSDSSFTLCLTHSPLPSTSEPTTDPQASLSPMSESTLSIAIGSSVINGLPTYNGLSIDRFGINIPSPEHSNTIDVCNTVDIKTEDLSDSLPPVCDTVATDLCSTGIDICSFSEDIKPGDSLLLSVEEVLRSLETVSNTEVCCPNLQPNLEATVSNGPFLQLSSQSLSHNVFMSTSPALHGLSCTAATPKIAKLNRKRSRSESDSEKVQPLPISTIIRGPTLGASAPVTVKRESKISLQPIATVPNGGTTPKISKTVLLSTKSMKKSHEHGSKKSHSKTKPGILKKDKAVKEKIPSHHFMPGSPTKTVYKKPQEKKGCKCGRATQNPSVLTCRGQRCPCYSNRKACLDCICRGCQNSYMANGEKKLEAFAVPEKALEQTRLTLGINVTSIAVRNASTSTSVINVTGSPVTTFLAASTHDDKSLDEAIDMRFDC
UniProt Q9NVV4: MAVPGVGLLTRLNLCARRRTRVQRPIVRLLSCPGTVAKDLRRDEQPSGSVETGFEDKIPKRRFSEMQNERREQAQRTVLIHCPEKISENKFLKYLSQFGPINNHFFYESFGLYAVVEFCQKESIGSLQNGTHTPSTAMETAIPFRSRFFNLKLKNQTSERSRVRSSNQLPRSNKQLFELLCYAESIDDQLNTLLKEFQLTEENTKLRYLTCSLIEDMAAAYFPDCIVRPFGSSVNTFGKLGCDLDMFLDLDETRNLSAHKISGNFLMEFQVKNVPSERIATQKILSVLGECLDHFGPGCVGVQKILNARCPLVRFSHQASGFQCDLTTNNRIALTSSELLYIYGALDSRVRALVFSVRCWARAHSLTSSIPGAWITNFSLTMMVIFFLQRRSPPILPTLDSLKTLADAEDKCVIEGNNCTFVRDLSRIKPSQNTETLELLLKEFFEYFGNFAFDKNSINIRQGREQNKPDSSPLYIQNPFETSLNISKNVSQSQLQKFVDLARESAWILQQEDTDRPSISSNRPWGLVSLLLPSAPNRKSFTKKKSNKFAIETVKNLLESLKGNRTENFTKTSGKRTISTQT
UniProt Q96EF0: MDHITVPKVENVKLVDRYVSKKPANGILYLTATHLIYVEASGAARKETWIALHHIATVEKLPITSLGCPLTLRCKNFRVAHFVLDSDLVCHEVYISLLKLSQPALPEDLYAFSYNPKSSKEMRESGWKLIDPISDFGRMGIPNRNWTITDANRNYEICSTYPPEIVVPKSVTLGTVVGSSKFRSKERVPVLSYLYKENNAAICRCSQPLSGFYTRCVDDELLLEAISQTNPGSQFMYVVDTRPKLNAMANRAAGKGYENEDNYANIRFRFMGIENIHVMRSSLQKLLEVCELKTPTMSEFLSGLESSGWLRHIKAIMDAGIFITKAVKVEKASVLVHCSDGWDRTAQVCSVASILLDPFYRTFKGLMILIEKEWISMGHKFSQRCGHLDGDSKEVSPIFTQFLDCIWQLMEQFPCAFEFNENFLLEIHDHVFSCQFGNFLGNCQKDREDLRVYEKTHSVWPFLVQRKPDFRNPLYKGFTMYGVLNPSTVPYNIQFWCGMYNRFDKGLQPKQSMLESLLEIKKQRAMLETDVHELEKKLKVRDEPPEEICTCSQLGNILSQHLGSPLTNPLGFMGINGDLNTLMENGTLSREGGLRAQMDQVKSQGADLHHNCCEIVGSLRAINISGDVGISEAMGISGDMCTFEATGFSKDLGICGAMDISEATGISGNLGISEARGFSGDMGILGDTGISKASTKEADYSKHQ
UniProt Q9UJ68: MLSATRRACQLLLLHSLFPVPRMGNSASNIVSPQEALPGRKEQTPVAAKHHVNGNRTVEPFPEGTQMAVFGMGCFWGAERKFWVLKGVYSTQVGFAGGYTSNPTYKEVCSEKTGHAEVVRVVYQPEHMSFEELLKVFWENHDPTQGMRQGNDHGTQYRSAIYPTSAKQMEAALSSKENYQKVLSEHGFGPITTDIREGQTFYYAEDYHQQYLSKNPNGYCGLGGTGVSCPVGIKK

Assays:
Experiment in all cases: log2 fold change, soluble protein after heating vs DMSO (PISA); higher = thermal stabilisation; K562 lysate, 10 uM; active = over 0.2 and 3.5 SD of the protein, either way, in both replicates (recomputed)
[1] = compound: C1=CC=C(C=C1)[C@H](COC2=CC3=C(C=C2)NC(=O)N3)NC(=O)C4=CC=CN(C4=O)CC5=CC(=C(C=C5)F)F
Outline: (§1)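 Soluble protein was defined as the supernatant remaining after 21,000xg for 90 min, following pooling of heated aliquots and adjustment to 0.5% NP-40 at 4°C. Before that, crude K562 extract at 1 mg/mL protein in PBS pH 7.4 with 1 mM MgCl2 was treated with 10 μM compound for 30 min and heated for 3 min across 48°C-58°C. Quantification used TMTpro 16plex LC-MS/MS with channel sums equalised, and values are log-two fold changes in thermal stability relative to solvent controls from duplicates.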

[2] = compound: CC1=C(SC2=C1C(=N[C@H](C3=NN=C(N32)C)CC(=O)N)C4=CC=C(C=C4)Cl)C
Outline: as §1

[3] = compound: c1ccc([C@@H]2C[C@H]2NC2CCNCC2)cc1
Outline: as §1

[4] = compound: Cc1sc2c(c1C)C(c1ccc(Cl)cc1)=N[C@@H](CC(=O)OC(C)(C)C)c1nnc(C)n1-2
Outline: as §1

[5] = compound: CC1=C2C(=CC=C1)N=C(N(C2=O)C3=CC=CC=C3C)CN4C=NC5=C(N=CN=C54)N
Outline: as §1

Measured: log2 fold change

MUC19 (UniProt Q7Z5P9)
inactive: [1] 0.339 | [2] 0.181 | [3] -0.004

MTSS1 isoform 5 (UniProt O43312)
inactive: [4] 0.161

MT-ATP8 (UniProt P03928)
inactive: [1] -0.057 | [2] 0.052 | [5] 0.082 | [3] 0.104

MSH4 (UniProt O15457)
inactive: [5] 0.128 | [3] 0.454

MTMR10 (UniProt Q9NXD2)
inactive: [4] -0.077

MT-ND1 (UniProt P03886)
inactive: [1] -0.057 | [2] -0.098 | [5] -0.055 | [4] -0.077 | [3] -0.039

MT1G (UniProt P13640)
inactive: [1] 0.094 | [2] -0.072 | [5] -0.005 | [4] 0.091 | [3] -0.144

MTFR2 (UniProt Q6P444)
inactive: [1] -0.025 | [2] -0.041 | [5] 0.002 | [4] -0.043 | [3] 0.14

MTMR4 (UniProt Q9NYA4)
inactive: [5] -0.056 | [4] 0.111 | [3] -0.031

MSH2 (UniProt P43246)
inactive: [1] 0.018 | [2] -0.006 | [5] 0.028 | [4] 0.001 | [3] 0.065

MSH5 isoform 3 (UniProt O43196)
inactive: [4] 0.069

Taken from the entries so far (two entries):
MSH4 (UniProt O15457)
inactive: [5] 0.128 | [3] 0.454

MTMR10 (UniProt Q9NXD2)
inactive: [4] -0.077

(list continues)

MTRF1 isoform 2 (UniProt O75570)
inactive: [3] -0.062

MRPL30 isoform 2 (UniProt Q8TCC3)
inactive: [1] 0.086 | [2] -0.056 | [4] -0.102 | [3] 0.476

MTURN (UniProt Q8N3F0)
inactive: [4] 0.046

MRPS30 (UniProt Q9NP92)
inactive: [1] -0.106 | [2] 0.029 | [5] 0.102 | [4] 0.006 | [3] -0.115

MSL2 (UniProt Q9HCI7)
inactive: [5] 0.049

MS4A3 (UniProt Q96HJ5)
inactive: [5] 0.088

MT-ND3 (UniProt P03897)
inactive: [1] 0.078 | [2] 0.137 | [3] -0.075

MRPS2 (UniProt Q9Y399)
inactive: [5] 0.063 | [4] 0.047 | [3] 0.036

MRPL34 (UniProt Q9BQ48)
inactive: [1] -0.003 | [2] 0.055 | [4] 0.107 | [3] -0.023

MSANTD2 (UniProt Q6P1R3)
inactive: [5] -0.024 | [4] 0.292 | [3] 0.353

MTPAP (UniProt Q9NVV4)
inactive: [5] -0.034 | [4] 0.083 | [3] 0.029

MTMR8 (UniProt Q96EF0)
inactive: [1] 0.028 | [2] 0.087 | [4] 0.219

MRPS15 (UniProt P82914)
inactive: [1] -0.026 | [2] 0.086 | [4] -0.059 | [3] -0.028

MT1L (UniProt Q93083)
inactive: [1] 0.083 | [2] 0.011 | [3] -0.068

MRPL24 (UniProt Q96A35)
inactive: [5] 0.054 | [4] 0.067 | [3] 0.083

MT-CO3 (UniProt P00414)
inactive: [5] 0.088 | [4] 0.315 | [3] -0.169

MSL3 (UniProt Q8N5Y2)
inactive: [5] -0.002 | [4] 0.189 | [3] 0.142

MTHFD2L (UniProt Q9H903)
inactive: [1] 0.309 | [2] -0.113 | [3] 0.174

MTHFSD (UniProt Q2M296)
inactive: [1] -0.055 | [2] 0.013 | [4] 0.125

MRPS14 (UniProt O60783)
inactive: [1] 0.025 | [2] 0.067 | [5] -0.049 | [3] 0.119

MSRA (UniProt Q9UJ68)
inactive: [3] 0.022

MTCH1 (UniProt Q9NZJ7)
inactive: [1] 0.085 | [2] 0.042 | [5] -0.051 | [4] -0.037 | [3] -0.068
